Test results from publication PMC5686351, “Tudor-domain protein PHF20L1 reads lysine methylated retinoblastoma tumour suppressor protein” (Cell Death and Differentiation, 2017).
No constants are given. Whether binding was seen depends on the method and setting. Binding seen in cells or lysates may run through a third protein. A result given as binding can be weak or reduced; the word gives no strength. Tags and fused reporters may be left off the sequences shown.

Target: Flag-PHF20L1 (human (cDNA from U2OS cells))
Experiment: co-IP; SAOS2 cells transfected with HA-pRb forms and Flag-PHF20L1 forms; anti-Flag agarose in modified RIPA, 2 h at 4 °C; pRb detected by immunoblot; with or without 20 μM etoposide for 16 h

B1: HA-pRb (protein, UniProt P06400 1-928)
chain: MPPKTPRKTAATAAAAAAEPPAPPPPPPPEEDPEQDSGPEDLPLVRLEFEETEEPDFTALCQKLKIPDHVRERAWLTWEKVSSVDGVLGGYIQKKKELWGICIFIAAVDLDEMSFTFTELQKNIEISVHKFFNLLKEIDTSTKVDNAMSRLLKKYDVLFALFSKLERTCELIYLTQPSSSISTEINSALVLKVSWITFLLAKGEVLQMEDDLVISFQLMLCVLDYFIKLSPPMLLKEPYKTAVIPINGSPRTPRRGQNRSARIAKQLENDTRIIEVLCKEHECNIDEVKNVYFKNFIPFMNSLGLVTSNGLPEVENLSKRYEEIYLKNKDLDARLFLDHDKTLQTDSIDSFETQRTPRKSNLDEEVNVIPPHTPVRTVMNTIQQLMMILNSASDQPSENLISYFNNCTVNPKESILKRVKDIGYIFKEKFAKAVGQGCVEIGSQRYKLGVRLYYRVMESMLKSEEERLSIQNFSKLLNDNIFHMSLLACALEVVMATYSRSTSQNLDSGTDLSFPWILNVLNLKAFDFYKVIESFIKAEGNLTREMIKHLERCEHRIMESLAWLSDSPLFDLIKQSKDREGPTDHLESACPLNLPLQNNHTAADMYLSPVRSPKKKGSTTRVNSTANAETQATSAFQTQKPLKSTSLSLFYKKVYRLAYLRLNTLCERLLSEHPELEHIIWTLFQHTLQNEYELMRDRHLDQIMMCSMYGICKVKNIDLKFKIIVTAYKDLPHAVQETFKRVLIKEEEYDSIIVFYNSVFMQRLKTNILQYASTRPPTLSPIPHIPRSPYKFPSSPLRIPGGNIYISPLKSPYKISEGLPTPTKMTPRSRILVSIGESFGTSEKFQKINQMVCNSDRVLKRSAEGSNPPKPLKKLRFDIEGSDEADGSKHLPGESKFQQKLAEMTSTRTRMQKQKMNDSMDTSNKEEK
binding: binds
